Measured values as given in PubChem BioAssay AID328 (DTP/NCI, 2004).
The list does not hold the whole screen: it gathers tests that were run many times, whatever their T/C, doses with no T/C, and many T/C values between a quarter and a half above the control. Other doses and runs of a compound stand elsewhere. T/C is the treated group as % of the vehicle group. Some entries give survivors of the animals treated and no T/C: the source holds a T/C of zero for them, seemingly a mark for toxic or unscored doses. Some survivor counts are full or nearly so, which does not show that the dose was tolerated: survival well below the control is almost never listed, so the zero probably covers shortened survival too. Survivors were counted at the toxicity check, usually on the fifth day, unless a day is given; later deaths do not show. Schedules are NCI's codes, read here as Q, the interval in days (D) or hours (H), X, the number of doses. Where survival is the endpoint, the PubChem record calls one and a half times the control and up active, and a quarter to a half above the control has no call in these data; cut-offs in other NCI protocols can differ. Some T/C values are followed by the survivors on the day toxicity was checked, most often the fifth; where none is given, no animal had died by that day.

Test system: BDF1 mice, P388 leukemia ip, median survival T/C
Experiment: NCI In Vivo Anticancer Drug Screen. Data for tumor model P388 Leukemia (intraperitoneal) in B6D2F1 (BDF1) mice
Conditions: T/C endpoint: median survival time, higher T/C = longer survival
Summary of the method: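 Steps: implant the tumour, treat one group with compound and another with vehicle, record survival, then divide treated by control.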

[1] = dose: 400.0 mg/kg/injection, schedule: Q04DX003 (ip), vehicle: Klucel (hydroxypropylcellulose) (HPC)
[2] = dose: 100.0 mg/kg/injection, schedule: Q01DX009 (ip), vehicle: Klucel (hydroxypropylcellulose) (HPC)
[3] = dose: 200.0 mg/kg/injection, schedule: Q01DX009 (ip), vehicle: Klucel (hydroxypropylcellulose) (HPC)
[4] = dose: 400.0 mg/kg/injection, schedule: Q04DX003 (ip), vehicle: saline
[5] = dose: 200.0 mg/kg/injection, schedule: Q01DX009 (ip), vehicle: saline with Tween-80
[6] = dose: 400.0 mg/kg/injection, schedule: Q01DX009 (ip), vehicle: Klucel (hydroxypropylcellulose) (HPC)
[7] = dose: 100.0 mg/kg/injection, schedule: Q01DX009 (ip), vehicle: saline with Tween-80
[8] = dose: 400.0 mg/kg/injection, schedule: Q01DX009 (ip), vehicle: saline with Tween-80

O=Cc1ccc(N2CCCCC2)cc1
survivor count [1]: 4 of 6

CC[n+]1ccc(Nc2ccc(/C=C/c3ccc4cc(Nc5cc[n+](CC)cc5)ccc4[n+]3CC)cc2)cc1
T/C (dose: 3.3 mg/kg/injection, schedule: Q04DX003 (ip), vehicle: saline): 129 % of control | T/C (dose: 5.0 mg/kg/injection, schedule: Q04DX003 (ip), vehicle: saline): 133 % of control | T/C (dose: 7.5 mg/kg/injection, schedule: Q04DX003 (ip), vehicle: saline): 129 % of control | survivor count (dose: 20.0 mg/kg/injection, schedule: Q01DX009 (ip), vehicle: saline): 1 of 6

C(=C/c1ccc(/C=C/c2ccccc2)cc1)/c1ccccc1
T/C [2]: 131 % of control | T/C [3]: 127 % of control [5 of 6 alive]

CCCCCCCCOP(=O)(N1CC1C)N1CC1C (centres undefined)
survivor count (dose: 200.0 mg/kg/injection, schedule: Q04DX003 (ip), vehicle: saline): 4 of 6 | survivor count [4]: 0 of 6

Clc1nc(NCc2ccccc2)c2cn[nH]c2n1
survivor count [5]: 1 of 6

COc1ccc(CNc2ncccn2)cc1
survivor count [2]: 6 of 6 | survivor count [6]: 6 of 6 | survivor count [1]: 6 of 6

O=C1C(NCCO)=C(N2CC2)C(=O)C(NCCO)=C1N1CC1
survivor count (dose: 0.75 mg/kg/injection, schedule: Q01DX009 (ip), vehicle: saline): 6 of 6 | survivor count (dose: 1.5 mg/kg/injection, schedule: Q01DX009 (ip), vehicle: saline): 6 of 6

CCCCn1nnc2c(NN)nc(N)nc21
survivor count [7]: 0 of 6

O=Cc1cc(O)ccc1[N+](=O)[O-]
survivor count (dose: 400.0 mg/kg/injection, schedule: Q04DX003 (ip), vehicle: saline with Tween-80): 1 of 6

CC(C)(C)CC(=O)OCCC[N+](C)(C)[O-]
survivor count (dose: 400.0 mg/kg/injection, schedule: Q01DX005 (ip), vehicle: water): 1 of 4 | survivor count (dose: 500.0 mg/kg/injection, schedule: Q01DX005 (ip), vehicle: water): 1 of 4

CCC(C)C1(C)OC1C(=O)OC (centres undefined)
survivor count [7]: 6 of 6

Nc1ccccc1C(=O)OCCc1ccccc1
T/C [3]: 135 % of control | T/C [6]: 140 % of control

CC(=O)OCC(=O)[C@@]1(O)CC[C@H]2[C@@H]3C[C@H](F)C4=CC(=O)CC[C@]4(C)[C@H]3[C@@H](O)C[C@@]21C
survivor count [7]: 5 of 6 | survivor count [5]: 5 of 6 | survivor count [8]: 3 of 6

CC1NCCNCCNCCNC(C)c2cccc1n2 (centres undefined)
survivor count (dose: 50.0 mg/kg/injection, schedule: Q01DX009 (ip), vehicle: saline): 1 of 6

CC/C=N/NC(N)=S
survivor count (dose: 25.0 mg/kg/injection, schedule: Q01DX009 (ip), vehicle: saline with Tween-80): 0 of 6

C=CCSc1ncnc2c1ncn2C1OC(CO)C(O)C1O (centres undefined)
survivor count [5]: 4 of 6 | survivor count [8]: 4 of 6

COc1ccc(CC2Cc3cc(OC)c(OC)cc3C=N2)cc1OC (centres undefined)
survivor count (dose: 200.0 mg/kg/injection, schedule: Q01DX009 (ip), vehicle: saline): 3 of 6 | survivor count (dose: 400.0 mg/kg/injection, schedule: Q01DX009 (ip), vehicle: saline): 0 of 6 | survivor count [4]: 4 of 6

C[C@]12CCC(=O)C=C1CC[C@H]1[C@@H]3CC[C@](O)(C(=O)CO)[C@@]3(C)C[C@H](O)[C@@]12F
survivor count [3]: 5 of 6 | survivor count [6]: 6 of 6
